Experimental data as given in article PMC9935901, “B-lymphoid tyrosine kinase-mediated FAM83A phosphorylation elevates pancreatic tumorigenesis through interacting with β-catenin” (Signal Transduction and Targeted Therapy, 2023).
These are yes or no findings as the source states them, for the method shown. Binding seen in cells or lysates may run through a third protein. Binding calls can cover weak binding; strength is not graded here.

Molecular target: GFP-tagged β-catenin Arm repeats 10–12
Assay: co-IP; HEK293T cells transfected for 48 h, IP and western blotting; with or without BLK, FAM83A wild type, Y138A or Y138D, saracatinib

B1: FAM83A (construct not stated) (protein, UniProt Q86UY5 1-434)
chain: MSRSRHLGKIRKRLEDVKSQWVRPARADFSDNESARLATDALLDGGSEAYWRVLSQEGEVDFLSSVEAQYIQAQAREPPCPPDTLGGAEAGPKGLDSSSLQSGTYFPVASEGSEPALLHSWASAEKPYLKEKSSATVYFQTVKHNNIRDLVRRCITRTSQVLVILMDVFTDVEIFCDILEAANKRGVFVCVLLDQGGVKLFQEMCDKVQISDSHLKNISIRSVEGEIYCAKSGRKFAGQIREKFIISDWRFVLSGSYSFTWLCGHVHRNILSKFTGQAVELFDEEFRHLYASSKPVMGLKSPRLVAPVPPGAAPANGRLSSSSGSASDRTSSNPFSGRSAGSHPGTRSVSASSGPCSPAAPHPPPPPRFQPHQGPWGAPSPQAHLSPRPHDGPPAAVYSNLGAYRPTRLQLEQLGLVPRLTPTWRPFLQASPHF
In the case of B1, the binding is reported as “binds”.
